# Test results: the supplement of paper PMC10338343
# ± gives the standard deviation. The entries are a selection whose mix differs from that of the whole data set. Many entries were measured with a wide error.
# System: EfPiwi piRISC loaded with piRNA #1 (26 nt)
# Assay: pre-steady-state target cleavage rate (min^-1); guide: piRNA #1 5'p-UGAGGUAGUAGGUUGUAUAGUAUCCA; MIWI and MILI are mouse PIWI proteins and EfPiwi is from a freshwater sponge; tags in brackets are library labels; higher = faster piRNA-guided slicing of the target
# Conditions: auxiliary factor: 500 nM Ephydatia muelleri Gtsf1
# In short: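 For Cleave-'n-Seq, a transcribed, DNA-blocked target RNA library […] met 1 nM active affinity-purified piRISC with one synthetic guide at 33 °C for 0–8 or 0–960 min in HEPES–potassium acetate buffer, with or without 500 nM GTSF1 partner protein. Uncleaved targets were sequenced and normalised to depth and weakly complementary targets, with three trials pooled and k3 capped at 0.0001 min^-1. A burst-and-steady-state fit supplied the pre-steady-state cleavage rate.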
row,Sequence,pre-steady-state target cleavage rate
1,GGAGACCUAUGAUAUGUACCUACUACCCCA,0.000329 ± 0.016
2,GGAGACCUAUCUAUACAUCCUACUACGUCA,0.00198 ± 0.0039
3,GGAGACCAUAGUAUACAACCUAGUACCUCA,0.00229 ± 0.0028
4,GGAGACCUAAGAUUACAACCUACUACCUCA,0.00381 ± 0.004
5,GGAGACCUAACUAUACAUCCUACUUCCUCA,0.00318 ± 0.004
6,GGAGUGGUUACUAUAGAACCUACUACCUCA,0.00192 ± 0.002
7,GGAGACGAUACUAUACAACCUACUACCACA,0.00487 ± 0.0013
8,GGAGACCAUACUAUACUACCAACUACCUCA,0.000462 ± 0.008
9,GGAGUGGAUACUAUAGUACCUACUACCUCA,0.00341 ± 0.0035
10,GGAGUGGAAACUAUACAACCUACUACCUGA,0.00283 ± 0.0023
11,GGAGACGAUUCUAUACAACCUACUACGUCA,0.00127 ± 0.0025
12,GGAGACGUUACUAUACAACCUACUACCUGA,0.00573 ± 0.0022
13,GGAGACCUAAGUAUACAAGCUACUACCUCA,0.00331 ± 0.0046
14,GGAGUGGUUACUAUACAACCUACUACCACA,0.00384 ± 0.0022
15,GGAGACCUUACAAUACUACCUACUACCUCA,0.00133 ± 0.0036
16,GGAGUGGAUACUAUACAUGGAUGAUGGAGA [g14:g26:cont:t1A],< 0.0001
17,GGAGAGGAUACUAUACAACGUACUACCUGA,0.00359 ± 0.0014
18,GGAGACCAUACUAUACAUGGAUGAUGGAGA [g14:g23:cont:t1A],0.000301 ± 0.015
19,GGAGACGAUACUAUACAACCUACUUACCUCA,0.0069 ± 0.0023
20,GGAGACCUUACUAUACUACCUACUAGCUCA,0.00147 ± 0.0046

# Rewritten as tab-separated lines: part of the list above
row	Sequence	pre-steady-state target cleavage rate
15	GGAGACCUUACAAUACUACCUACUACCUCA	0.00133 ± 0.0036
16	GGAGUGGAUACUAUACAUGGAUGAUGGAGA [g14:g26:cont:t1A]	< 0.0001

# Additional entries

row,Sequence,pre-steady-state target cleavage rate
1,GGAGACGAUACUAUACAACCUACUACCAGA,0.00503 ± 0.0015
2,GGAGACCUUACUUUACAACCUACUACCUGA,0.00277 ± 0.0039
3,GGAGACCUAUCUAUACAACCUACUAGCUGA,0.00272 ± 0.0052
4,GGAGUGGAUACUAUACAACCUACUACCACA,0.00561 ± 0.0019
5,GGAGACCAUACUAAACAACCUACUACCACA,0.000755 ± 0.013
6,GGAGACCAUACAAAACAACCUACUACCUCA,0.00423 ± 0.0037
7,GGAGACGAUUCUAUACAACCUACAACCUCA,0.00277 ± 0.0012
8,GGAGACCUAUCUUUACAACCUACAACCUCA,0.00153 ± 0.0049
9,GGAGACCAUACUAUACUACCUACAACCUCA,0.000927 ± 0.0043
10,GGAGACCUAAGUAUACAACCUACUACCUGA,0.00237 ± 0.0032
11,GGAGACCUAUCUAUACAUCCUACUUCCUCA,0.00289 ± 0.0043
12,GGAGACCUAUCAAUACAACCUACUACCACA,0.000786 ± 0.011
13,GGAGAGGAUUCUAUACAACGUACUACCUCA,0.00249 ± 0.0021
14,GGAGACCUAUGAUAUGUUGCUAUCUACCUCA,0.000827 ± 0.01
15,GGAGACCUAUGAUAUGAAACUACUACCUCA,0.000781 ± 0.0072
16,GGAGACCUAACAUUACAACCUACUACCUCA,0.00377 ± 0.0039
17,GGAGACCUAUCUAUACUACCUUCUACCUCA,0.00101 ± 0.0051
18,GGAGACCUAUCUAUACAACCUAGUACCACA,0.00205 ± 0.0043
19,GGAGACCUUACUAUAGCAACCUACUACCUCA,0.00326 ± 0.0039
20,GGAGACCUAACUAAACAACGUACUACCUCA,0.00112 ± 0.007
